Experimental findings from patent publication US8481481B2 (Advanced Accelerator Applications S.A., priority 2008, dated 2013) are described below.

Plain letter strings leave the end groups untold.

This data set in a line: general procedure: Fmoc solid-phase peptide synthesis. As to conditions: whole synthesis, RP-HPLC.

As to MLSRAVCGTSRQLAPALGYLGSRQ, the “final HPLC purity” value worked out at 99% and the “final purity (method not given)” value is listed as 99%.
